The record followed here is the supplement of paper PMC10849652.

The chains behind the UniProt entries cited, without tags or fusion partners. Where a name states a change or a piece, a line headed by the entry shows the natural chain unless it says otherwise.
UniProt Q9NZ43: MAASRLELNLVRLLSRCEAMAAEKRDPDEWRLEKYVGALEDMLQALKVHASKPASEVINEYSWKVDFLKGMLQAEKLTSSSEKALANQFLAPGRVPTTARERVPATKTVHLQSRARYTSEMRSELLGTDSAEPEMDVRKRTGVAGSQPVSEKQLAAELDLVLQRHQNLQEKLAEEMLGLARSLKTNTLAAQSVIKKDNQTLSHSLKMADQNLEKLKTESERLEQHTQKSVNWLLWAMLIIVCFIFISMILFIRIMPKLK
UniProt O94763, whole entry, looked up: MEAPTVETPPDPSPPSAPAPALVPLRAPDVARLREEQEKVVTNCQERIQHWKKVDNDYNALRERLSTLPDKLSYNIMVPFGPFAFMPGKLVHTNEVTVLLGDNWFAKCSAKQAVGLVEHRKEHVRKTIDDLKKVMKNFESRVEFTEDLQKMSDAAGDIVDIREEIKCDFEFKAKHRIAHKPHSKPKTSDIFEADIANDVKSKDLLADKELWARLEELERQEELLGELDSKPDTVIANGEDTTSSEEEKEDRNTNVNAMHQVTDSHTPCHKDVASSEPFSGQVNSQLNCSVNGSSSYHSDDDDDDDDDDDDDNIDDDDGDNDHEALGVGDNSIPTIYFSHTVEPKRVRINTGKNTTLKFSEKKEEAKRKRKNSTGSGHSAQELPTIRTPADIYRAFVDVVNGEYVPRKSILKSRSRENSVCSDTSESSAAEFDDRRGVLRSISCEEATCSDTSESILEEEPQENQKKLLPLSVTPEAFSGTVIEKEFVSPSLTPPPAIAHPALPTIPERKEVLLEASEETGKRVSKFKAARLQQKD
UniProt P40818: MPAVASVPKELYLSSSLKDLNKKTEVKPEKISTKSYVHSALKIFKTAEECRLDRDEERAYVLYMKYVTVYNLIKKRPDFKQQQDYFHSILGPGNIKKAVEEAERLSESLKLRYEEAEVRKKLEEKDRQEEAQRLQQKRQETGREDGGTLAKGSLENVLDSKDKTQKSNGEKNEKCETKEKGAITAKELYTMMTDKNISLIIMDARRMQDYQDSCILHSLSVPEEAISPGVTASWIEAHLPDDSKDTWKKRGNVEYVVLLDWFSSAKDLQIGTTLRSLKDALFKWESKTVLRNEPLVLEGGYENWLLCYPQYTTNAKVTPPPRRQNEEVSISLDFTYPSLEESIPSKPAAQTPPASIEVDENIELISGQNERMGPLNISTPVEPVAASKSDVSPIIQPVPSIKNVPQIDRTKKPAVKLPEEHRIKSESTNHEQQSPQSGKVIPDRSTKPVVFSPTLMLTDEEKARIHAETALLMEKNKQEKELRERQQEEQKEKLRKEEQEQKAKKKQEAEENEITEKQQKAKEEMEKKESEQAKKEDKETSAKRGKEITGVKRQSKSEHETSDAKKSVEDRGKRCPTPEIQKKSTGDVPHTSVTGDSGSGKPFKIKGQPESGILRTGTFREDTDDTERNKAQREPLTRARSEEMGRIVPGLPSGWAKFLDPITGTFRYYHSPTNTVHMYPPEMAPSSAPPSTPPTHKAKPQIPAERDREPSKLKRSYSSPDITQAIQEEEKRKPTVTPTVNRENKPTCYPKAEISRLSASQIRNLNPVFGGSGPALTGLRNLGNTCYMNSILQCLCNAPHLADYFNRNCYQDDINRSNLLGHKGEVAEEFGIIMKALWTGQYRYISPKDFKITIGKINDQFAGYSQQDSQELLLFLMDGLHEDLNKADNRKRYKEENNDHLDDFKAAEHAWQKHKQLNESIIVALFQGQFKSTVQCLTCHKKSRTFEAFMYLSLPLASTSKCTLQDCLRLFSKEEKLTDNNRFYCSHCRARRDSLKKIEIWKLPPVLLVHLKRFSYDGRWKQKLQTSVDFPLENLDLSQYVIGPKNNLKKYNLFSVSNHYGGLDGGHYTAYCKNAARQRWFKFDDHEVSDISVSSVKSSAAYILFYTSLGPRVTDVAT
UniProt P47985: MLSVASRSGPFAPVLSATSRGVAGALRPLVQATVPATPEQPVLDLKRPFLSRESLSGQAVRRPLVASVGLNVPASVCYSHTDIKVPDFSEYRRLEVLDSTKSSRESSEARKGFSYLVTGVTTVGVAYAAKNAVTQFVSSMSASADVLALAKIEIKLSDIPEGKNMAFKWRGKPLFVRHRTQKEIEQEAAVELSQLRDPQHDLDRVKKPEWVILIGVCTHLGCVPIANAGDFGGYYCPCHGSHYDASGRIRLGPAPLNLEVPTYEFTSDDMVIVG
UniProt Q9UMX0, whole entry, looked up: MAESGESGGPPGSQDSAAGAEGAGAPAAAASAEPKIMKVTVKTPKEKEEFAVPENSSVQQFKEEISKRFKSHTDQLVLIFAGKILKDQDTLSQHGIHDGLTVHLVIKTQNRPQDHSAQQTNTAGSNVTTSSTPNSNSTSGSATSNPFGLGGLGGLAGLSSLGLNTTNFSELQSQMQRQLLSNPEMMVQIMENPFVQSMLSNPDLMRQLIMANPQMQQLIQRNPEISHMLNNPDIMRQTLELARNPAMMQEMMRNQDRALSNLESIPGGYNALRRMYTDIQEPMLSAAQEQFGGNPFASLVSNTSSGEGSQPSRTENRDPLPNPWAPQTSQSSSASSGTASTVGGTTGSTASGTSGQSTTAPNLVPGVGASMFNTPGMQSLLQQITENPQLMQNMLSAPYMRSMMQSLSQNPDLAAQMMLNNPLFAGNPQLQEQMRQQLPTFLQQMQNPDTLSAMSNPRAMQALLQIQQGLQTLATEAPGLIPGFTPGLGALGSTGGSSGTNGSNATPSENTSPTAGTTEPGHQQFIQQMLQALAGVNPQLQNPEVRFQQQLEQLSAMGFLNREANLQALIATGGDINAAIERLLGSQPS
UniProt Q9BVJ6: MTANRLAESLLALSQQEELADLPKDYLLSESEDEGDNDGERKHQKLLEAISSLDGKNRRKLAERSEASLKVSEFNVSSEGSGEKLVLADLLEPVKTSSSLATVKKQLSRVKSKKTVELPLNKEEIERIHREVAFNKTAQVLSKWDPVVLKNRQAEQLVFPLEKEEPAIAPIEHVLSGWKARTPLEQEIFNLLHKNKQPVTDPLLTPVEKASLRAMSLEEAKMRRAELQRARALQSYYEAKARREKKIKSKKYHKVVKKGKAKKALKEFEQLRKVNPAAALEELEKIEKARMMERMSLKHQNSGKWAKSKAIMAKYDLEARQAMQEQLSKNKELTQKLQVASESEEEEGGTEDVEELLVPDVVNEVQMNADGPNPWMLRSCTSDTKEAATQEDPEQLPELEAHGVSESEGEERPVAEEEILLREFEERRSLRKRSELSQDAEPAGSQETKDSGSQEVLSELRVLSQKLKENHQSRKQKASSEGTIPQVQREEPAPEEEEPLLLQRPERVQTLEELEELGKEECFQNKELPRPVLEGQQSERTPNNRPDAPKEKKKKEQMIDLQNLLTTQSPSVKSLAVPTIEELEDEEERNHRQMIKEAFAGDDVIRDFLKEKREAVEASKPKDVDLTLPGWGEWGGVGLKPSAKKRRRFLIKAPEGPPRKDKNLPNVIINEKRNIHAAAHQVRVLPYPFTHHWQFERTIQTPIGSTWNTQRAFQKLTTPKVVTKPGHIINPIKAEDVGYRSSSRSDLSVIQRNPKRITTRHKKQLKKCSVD
UniProt O94888: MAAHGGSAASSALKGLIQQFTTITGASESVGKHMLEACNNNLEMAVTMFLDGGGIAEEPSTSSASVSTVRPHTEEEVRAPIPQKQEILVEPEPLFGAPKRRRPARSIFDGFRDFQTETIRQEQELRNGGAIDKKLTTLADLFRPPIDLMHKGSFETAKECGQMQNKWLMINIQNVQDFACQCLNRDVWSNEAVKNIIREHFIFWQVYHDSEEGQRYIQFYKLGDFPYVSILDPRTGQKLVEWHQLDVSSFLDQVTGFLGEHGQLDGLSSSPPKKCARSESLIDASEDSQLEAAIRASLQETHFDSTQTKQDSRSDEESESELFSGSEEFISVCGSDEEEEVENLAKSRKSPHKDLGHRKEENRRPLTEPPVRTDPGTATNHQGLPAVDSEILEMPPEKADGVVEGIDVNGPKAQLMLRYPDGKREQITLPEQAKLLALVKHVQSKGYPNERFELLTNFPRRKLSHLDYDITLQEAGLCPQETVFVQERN
UniProt Q92890: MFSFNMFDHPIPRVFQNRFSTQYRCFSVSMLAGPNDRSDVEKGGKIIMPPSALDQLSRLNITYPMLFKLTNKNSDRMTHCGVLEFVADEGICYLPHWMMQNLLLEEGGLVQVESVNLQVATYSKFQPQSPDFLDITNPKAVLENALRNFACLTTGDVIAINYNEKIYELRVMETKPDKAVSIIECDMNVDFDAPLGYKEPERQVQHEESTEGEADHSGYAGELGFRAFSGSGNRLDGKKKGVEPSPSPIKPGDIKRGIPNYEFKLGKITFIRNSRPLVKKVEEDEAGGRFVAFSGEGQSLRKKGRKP
UniProt P22695: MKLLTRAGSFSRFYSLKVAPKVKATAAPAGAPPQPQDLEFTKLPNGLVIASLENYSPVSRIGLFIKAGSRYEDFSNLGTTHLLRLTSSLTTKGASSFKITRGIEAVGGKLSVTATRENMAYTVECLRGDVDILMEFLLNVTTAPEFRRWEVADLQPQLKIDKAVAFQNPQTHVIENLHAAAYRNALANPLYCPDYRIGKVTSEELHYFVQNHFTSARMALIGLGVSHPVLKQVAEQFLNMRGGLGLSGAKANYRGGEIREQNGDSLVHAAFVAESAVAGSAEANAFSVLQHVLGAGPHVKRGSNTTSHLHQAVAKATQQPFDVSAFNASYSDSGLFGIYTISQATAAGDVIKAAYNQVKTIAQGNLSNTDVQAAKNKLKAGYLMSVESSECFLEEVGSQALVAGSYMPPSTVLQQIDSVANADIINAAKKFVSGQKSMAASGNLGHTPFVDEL
UniProt O95155, whole entry, looked up: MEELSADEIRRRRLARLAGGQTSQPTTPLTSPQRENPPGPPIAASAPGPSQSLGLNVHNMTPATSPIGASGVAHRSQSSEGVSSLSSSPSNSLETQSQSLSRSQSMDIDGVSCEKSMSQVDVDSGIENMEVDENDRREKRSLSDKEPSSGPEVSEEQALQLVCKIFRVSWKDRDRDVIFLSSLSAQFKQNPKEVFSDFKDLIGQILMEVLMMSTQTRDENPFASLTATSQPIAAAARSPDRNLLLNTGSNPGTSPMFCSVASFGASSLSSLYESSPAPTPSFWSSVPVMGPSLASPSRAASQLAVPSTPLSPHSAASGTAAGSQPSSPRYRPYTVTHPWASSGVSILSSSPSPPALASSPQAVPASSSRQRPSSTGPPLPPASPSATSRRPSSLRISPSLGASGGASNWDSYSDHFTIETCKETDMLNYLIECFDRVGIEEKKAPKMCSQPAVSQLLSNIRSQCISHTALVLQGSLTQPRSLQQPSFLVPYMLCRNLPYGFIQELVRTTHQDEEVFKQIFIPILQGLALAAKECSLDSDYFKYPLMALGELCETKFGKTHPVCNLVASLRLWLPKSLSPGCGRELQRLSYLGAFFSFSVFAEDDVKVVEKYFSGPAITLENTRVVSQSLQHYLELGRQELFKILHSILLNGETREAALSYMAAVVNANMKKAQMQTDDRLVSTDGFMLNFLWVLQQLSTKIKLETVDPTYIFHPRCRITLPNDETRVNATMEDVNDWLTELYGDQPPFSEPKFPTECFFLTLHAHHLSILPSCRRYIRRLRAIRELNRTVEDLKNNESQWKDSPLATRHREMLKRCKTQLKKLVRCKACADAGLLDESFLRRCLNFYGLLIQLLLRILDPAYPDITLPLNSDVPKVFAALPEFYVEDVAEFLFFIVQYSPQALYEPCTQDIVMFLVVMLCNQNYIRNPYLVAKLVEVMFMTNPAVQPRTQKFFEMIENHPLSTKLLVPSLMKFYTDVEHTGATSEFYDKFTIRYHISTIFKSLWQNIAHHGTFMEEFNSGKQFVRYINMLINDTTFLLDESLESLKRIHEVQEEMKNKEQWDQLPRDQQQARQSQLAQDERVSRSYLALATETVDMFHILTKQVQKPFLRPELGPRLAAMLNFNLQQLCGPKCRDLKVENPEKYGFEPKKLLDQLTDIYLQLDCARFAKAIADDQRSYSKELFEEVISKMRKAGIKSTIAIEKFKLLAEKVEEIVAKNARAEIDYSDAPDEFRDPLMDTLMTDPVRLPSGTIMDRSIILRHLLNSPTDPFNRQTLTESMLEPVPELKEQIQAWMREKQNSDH
UniProt P54578: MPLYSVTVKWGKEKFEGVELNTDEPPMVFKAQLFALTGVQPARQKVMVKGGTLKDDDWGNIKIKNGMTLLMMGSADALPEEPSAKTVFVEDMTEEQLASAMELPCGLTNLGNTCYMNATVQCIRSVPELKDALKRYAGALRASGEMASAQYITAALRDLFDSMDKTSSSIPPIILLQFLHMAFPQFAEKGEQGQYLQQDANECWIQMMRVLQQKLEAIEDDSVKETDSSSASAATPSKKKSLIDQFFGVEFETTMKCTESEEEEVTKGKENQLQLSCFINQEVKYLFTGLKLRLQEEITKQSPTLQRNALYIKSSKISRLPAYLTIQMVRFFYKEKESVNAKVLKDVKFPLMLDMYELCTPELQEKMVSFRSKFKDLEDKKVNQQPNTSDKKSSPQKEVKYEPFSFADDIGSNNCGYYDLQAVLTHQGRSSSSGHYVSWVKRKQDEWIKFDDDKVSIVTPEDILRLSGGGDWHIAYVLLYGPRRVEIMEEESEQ

Some of the results follow.

Compound in this experiment: O=C(CCCCCCNC(=O)c1cnc(N(c2ccccc2)c2ccccc2Cl)nc1)NO [citarinostat]
Briefly: log2 fold change, soluble protein after heating vs DMSO (PISA); higher = thermal stabilisation; K562 cells, 10 uM, 30 min; active = over 0.2 and 3.5 SD of the protein, either way, in both replicates (recomputed). Summed up: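 K562 cells at 2×10^6 cells/mL were exposed to 10 μM compound for 30 min, then aliquots were heated for 3 min across 48°C-58°C, pooled, and extracted in PBS containing 0.5% NP-40 at 4°C. The supernatant after 21,000xg for 90 min was taken as soluble protein and measured by TMTpro 16plex LC-MS/MS with channel sums equalised. Thermal stability is reported relative to control samples, with values from duplicates. Fold changes are given on a log2 scale.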
On to USE1 (UniProt Q9NZ43), for which the log2 fold change is inactive: 0.045.

In the case of URI1 (UniProt O94763), the log2 fold change is inactive: 0.029.

For the target UMPS (UniProt P11172), the log2 fold change was inactive: 0.031.

Regarding UTP3 (UniProt Q9NQZ2), the log2 fold change is inactive: -0.107.

As to UIMC1 (UniProt Q96RL1), the log2 fold change is inactive: -0.119.

As to USP8 (UniProt P40818), the log2 fold change is inactive: 0.067.

Take UGGT2 (UniProt Q9NYU1): the log2 fold change was inactive: -0.11.

On to UBR4 isoform 2 (UniProt Q5T4S7), for which the log2 fold change is inactive: 0.027.

On to UBE3C (UniProt Q15386), for which the log2 fold change was inactive: 0.005.

With UQCRFS1 (UniProt P47985), the log2 fold change was inactive: -0.01.

UBQLN1 (UniProt Q9UMX0): the log2 fold change was inactive: -0.032.

For the target UTP14A (UniProt Q9BVJ6), the log2 fold change is inactive: -0.04.

Regarding UBXN7 (UniProt O94888), the log2 fold change was inactive: 0.038.

For VAMP4 (UniProt O75379), the log2 fold change is inactive: 0.025.

As for VAPA (UniProt Q9P0L0), the log2 fold change was inactive: 0.042.

In the case of VARS (UniProt P26640), the log2 fold change is inactive: 0.041.

Regarding UCKL1 (UniProt Q9NWZ5), the log2 fold change is inactive: 0.003.

Turning to USP48 isoform 8 (UniProt Q86UV5), the log2 fold change is inactive: 0.177.

For the target VCL (UniProt P18206), the log2 fold change was inactive: 0.024.

For UGGT1 (UniProt Q9NYU2), the log2 fold change is inactive: 0.047.

On to UQCC2 (UniProt Q9BRT2), for which the log2 fold change was inactive: 0.049.

Turning to UBR7 (UniProt Q8N806), the log2 fold change was inactive: 0.014.

Take USP5 (UniProt P45974): the log2 fold change was inactive: 0.03.

For UQCRH (UniProt P07919), the log2 fold change was inactive: 0.016.

As to USP10 isoform 2 (UniProt Q14694), the log2 fold change was inactive: -0.002.

UROS (UniProt P10746): the log2 fold change is inactive: 0.06.

As for UCHL3 (UniProt P15374), the log2 fold change is inactive: 0.001.

On to UFD1 isoform 1 (UniProt Q92890), for which the log2 fold change was inactive: 0.061.

VARS2, A0A0G2JL52: the log2 fold change was inactive: 0.006.

With VAPA isoform 2 (UniProt Q9P0L0), the log2 fold change is inactive: 0.022.

In the case of UQCRC2 (UniProt P22695), the log2 fold change was inactive: 0.018.

Turning to USP15 (UniProt Q9Y4E8), the log2 fold change is inactive: 0.064.

On to UBE4B isoform 4 (UniProt O95155), for which the log2 fold change is inactive: 0.02.

With UGT8 (UniProt Q16880), the log2 fold change is inactive: -0.035.

UROD (UniProt P06132): the log2 fold change is inactive: -0.013.

UEVLD (UniProt Q8IX04): the log2 fold change was inactive: 0.061.

With USP9X (UniProt Q93008), the log2 fold change is inactive: 0.032.

In the case of USP14 (UniProt P54578), the log2 fold change was inactive: 0.051.

Consider VASP (UniProt P50552), for which the log2 fold change was inactive: 0.077.
